Measurements: patent publication US12459974B2, “Bicyclic peptide ligands specific for Nectin-4” (priority 2018, dated 2025)
This continues a long series; more values of the same kind are listed elsewhere. *1 amine or outer side, *2 acyl side, *3 side chain or, on linkers, in order; H or OH if unused. Where a SMILES comes first, the peptide text is derived from it. Bridges are numbered along the chain shown (N, C = ends). Roman numbers before positions name the chains, in order. [ ]: non-standard residue; d: D form. The star is where a group is joined. ξ: configuration not given here. TATA = O=C(CC[*:1])N1CN(C(=O)CC[*:2])CN(C(=O)CC[*:3])C1; Dolaproine = CO[C@@H]([C@@H]1CCCN1)[C@@H](C)C(=O)O; X1 = CC[C@H](C)C(C(CC(=O)[*:2])OC)N(C)[*:1]; 1Nal = N[C@@H](Cc1cccc2ccccc12)C(=O)O; X3 = O=C(CCCC(=O)[*:2])NCCC(=O)[*:1]; PABC = O=C(OCc1ccc(N[*:1])cc1)[*:2]; Hyp = O=C(O)[C@@H]1C[C@@H](O)CN1; hArg = N=C(N)NCCCC[C@H](N)C(=O)O; Cit = NC(=O)NCCC[C@H](N)C(=O)O; X2 = CC(N*)[C@@H](O)c1ccccc1; ξNMeV = CNC(C(=O)O)C(C)C; ξV = CC(C)C(N)C(=O)O; Sar = CNCC(=O)O

System: MDA-MB-468 xenograft
Assay: Example 9.8: in vivo efficacy of BCY8245, BCY8781 and BCY8245 with BCY8234 in MDA-MB-468 xenograft in Balb/c nude mice
Parameters: species or system Mus Musculus
Details: qw

CC[C@H](C)C(C(CC(=O)N1CCC[C@H]1[C@H](OC)[C@@H](C)C(=O)NC(C)[C@@H](O)c1ccccc1)OC)N(C)C(=O)[C@@H](NC(=O)C(C(C)C)N(C)C(=O)OCc1ccc(NC(=O)[C@H](CCCNC(N)=O)NC(=O)C(NC(=O)CCCC(=O)NCCC(=O)N(C)CC(=O)N(C)CC(=O)N(C)CC(=O)N(C)CC(=O)N(C)CC(=O)N(C)CC(=O)N(C)CC(=O)N(C)CC(=O)N(C)CC(=O)N(C)CC(=O)N[C@H]2CSCCC(=O)N3CN4CN(C3)C(=O)CCSC[C@H](NC(=O)[C@@H](CC(=O)O)NC(=O)[C@H](Cc3cccc5ccccc35)NC(=O)[C@@H]3CCCN3C2=O)C(=O)N[C@@H](CCSC)C(=O)N[C@@H](CCCCNC(=N)N)C(=O)N[C@@H](CC(=O)O)C(=O)N[C@@H](Cc2c[nH]c3ccccc23)C(=O)N[C@@H](CO)C(=O)N[C@@H]([C@@H](C)O)C(=O)N2CCC[C@H]2C(=O)N2C[C@H](O)C[C@H]2C(=O)N[C@@H](Cc2c[nH]c3ccccc23)C(=O)N[C@H](C(N)=O)CSCCC4=O)C(C)C)cc1)C(C)C (stereo partly drawn) [BCY8245, MMAE-PABC-Cit-Val-Glutaryl-BCY8234] (I: [Sar][Sar][Sar][Sar][Sar][Sar][Sar][Sar][Sar][Sar]CP[1Nal][dD]CM[hArg]DWSTP[Hyp]WC-NH2 / II: [ξV][Cit][PABC][ξNMeV]V[X1][Dolaproine]-X2; linker I:11-I:15-I:25 via TATA; linker I:N-II:N via X3)
Tumor volume (0.3 mpk, i.v., day 0 after the start of treatment): 188 mm^3
Tumor volume (0.3 mpk, i.v., day 2): 189 mm^3
Tumor volume (0.3 mpk, i.v., day 4): 211 mm^3
Tumor volume (0.3 mpk, i.v., day 7): 235 mm^3
Tumor volume (0.3 mpk, i.v., day 9): 252 mm^3
Tumor volume (0.3 mpk, i.v., day 11): 253 mm^3
Tumor volume (0.3 mpk, i.v., day 14): 275 mm^3
Tumor volume (0.3 mpk, i.v., day 16): 277 mm^3
Tumor volume (0.3 mpk, i.v., day 18): 295 mm^3
Tumor volume (0.3 mpk, i.v., day 21): 300 mm^3
Tumor volume (0.3 mpk, Mean ± SEM): 300 ± 27 mm^3
Tumor volume (0.3 mpk, day 23): 284 ± 14 mm^3
Tumor volume (0.3 mpk, day 25): 268 ± 10 mm^3
Tumor volume (0.3 mpk, day 28): 254 ± 15 mm^3
Tumor volume (0.3 mpk, day 30): 240 ± 21 mm^3
Tumor volume (0.3 mpk, day 32): 241 ± 32 mm^3
Tumor volume (0.3 mpk, day 35): 237 ± 33 mm^3
Tumor volume (0.3 mpk, day 37): 246 ± 40 mm^3
Tumor volume (0.3 mpk, day 39): 248 ± 37 mm^3
Tumor volume (0.3 mpk, day 42): 245 ± 48 mm^3
Tumor volume (0.3 mpk, day 44): 251 ± 48 mm^3
Tumor volume (0.3 mpk, day 46): 248 ± 61 mm^3
Tumor volume (0.3 mpk, day 49): 250 ± 65 mm^3
Tumor volume (0.3 mpk, day 51): 264 ± 68 mm^3
Tumor volume (0.3 mpk, day 53): 268 ± 81 mm^3
Tumor volume (0.3 mpk, day 56): 271 ± 87 mm^3
Tumor volume (0.3 mpk, day 58): 267 ± 95 mm^3
Tumor volume (0.3 mpk, day 60): 270 ± 108 mm^3
Tumor volume (0.3 mpk, day 64): 276 ± 132 mm^3
Tumor volume (0.3 mpk, day 67): 269 ± 137 mm^3
Tumor volume (0.3 mpk, day 71): 280 ± 155 mm^3
Tumor volume (0.3 mpk, day 74): 295 ± 167 mm^3
Tumor volume (0.3 mpk, day 78): 313 ± 194 mm^3
Tumor volume (0.3 mpk, day 81): 291 ± 192 mm^3
Tumor volume (0.3 mpk, day 84): 301 ± 194 mm^3
Tumor volume (0.3 mpk, day 88): 277 ± 194 mm^3
Tumor volume (0.3 mpk, day 91): 293 ± 209 mm^3
Tumor volume (1 mpk, i.v., day 0 after the start of treatment): 185 mm^3
Tumor volume (1 mpk, i.v., day 2): 187 mm^3
Tumor volume (1 mpk, i.v., day 4): 183 mm^3
Tumor volume (1 mpk, i.v., day 7): 190 mm^3
Tumor volume (1 mpk, i.v., day 9): 205 mm^3
Tumor volume (1 mpk, i.v., day 11): 195 mm^3
Tumor volume (1 mpk, i.v., day 14): 201 mm^3
Tumor volume (1 mpk, i.v., day 16): 197 mm^3
Tumor volume (1 mpk, i.v., day 18): 218 mm^3
Tumor volume (1 mpk, i.v., day 21): 204 mm^3
Tumor volume (1 mpk, Mean ± SEM): 204 ± 19 mm^3
Tumor volume (1 mpk, day 23): 200 ± 16 mm^3
Tumor volume (1 mpk, day 25): 199 ± 13 mm^3
Tumor volume (1 mpk, day 28): 210 ± 6 mm^3
Tumor volume (1 mpk, day 30): 221 ± 14 mm^3
Tumor volume (1 mpk, day 32): 239 ± 16 mm^3
Tumor volume (1 mpk, day 35): 255 ± 15 mm^3
Tumor volume (1 mpk, day 37): 292 ± 19 mm^3
Tumor volume (1 mpk, day 39): 304 ± 36 mm^3
Tumor volume (1 mpk, day 42): 314 ± 42 mm^3
Tumor volume (1 mpk, day 44): 327 ± 42 mm^3
Tumor volume (1 mpk, day 46): 342 ± 55 mm^3
Tumor volume (1 mpk, day 49): 356 ± 59 mm^3
Tumor volume (1 mpk, day 51): 374 ± 71 mm^3
Tumor volume (1 mpk, day 53): 381 ± 87 mm^3
Tumor volume (1 mpk, day 56): 416 ± 104 mm^3
Tumor volume (1 mpk, day 58): 433 ± 113 mm^3
Tumor volume (1 mpk, day 60): 464 ± 119 mm^3
Tumor volume (1 mpk, day 64): 532 ± 154 mm^3
Tumor volume (1 mpk, day 67): 550 ± 162 mm^3
Tumor volume (1 mpk, day 71): 565 ± 170 mm^3
Tumor volume (1 mpk, day 74): 594 ± 173 mm^3
Tumor volume (1 mpk, day 78): 612 ± 195 mm^3
Tumor volume (1 mpk, day 81): 639 ± 206 mm^3
Tumor volume (1 mpk, day 84): 695 ± 234 mm^3
Tumor volume (1 mpk, day 88): 743 ± 236 mm^3
Tumor volume (1 mpk, day 91): 771 ± 240 mm^3
Tumor volume (3 mpk, i.v., day 0 after the start of treatment): 181 mm^3
Tumor volume (3 mpk, i.v., day 2): 171 mm^3
Tumor volume (3 mpk, i.v., day 4): 163 mm^3
Tumor volume (3 mpk, i.v., day 7): 141 mm^3
Tumor volume (3 mpk, i.v., day 9): 113 mm^3
